These are yes or no findings as the source states them, for the method shown. Binding seen in cells or lysates may run through a third protein. Binding calls can cover weak binding; strength is not graded here.
Target: FLAG-tagged WT Bmal1 (adenovirus) (mouse) (UniProt Q9WTL8)
Assay: co-IP; anti-FLAG beads on lysates of insulin-treated (50 nM, 30 min) primary hepatocytes infected with Ad-FLAG-tagged WT or S42A Bmal1; blot for 14-3-3β

Chains of the proteins cited; added tags and fusions are not shown. Lines headed by an entry give the natural chain unless they say otherwise; changes in a name come on top.
UniProt Q9WTL8: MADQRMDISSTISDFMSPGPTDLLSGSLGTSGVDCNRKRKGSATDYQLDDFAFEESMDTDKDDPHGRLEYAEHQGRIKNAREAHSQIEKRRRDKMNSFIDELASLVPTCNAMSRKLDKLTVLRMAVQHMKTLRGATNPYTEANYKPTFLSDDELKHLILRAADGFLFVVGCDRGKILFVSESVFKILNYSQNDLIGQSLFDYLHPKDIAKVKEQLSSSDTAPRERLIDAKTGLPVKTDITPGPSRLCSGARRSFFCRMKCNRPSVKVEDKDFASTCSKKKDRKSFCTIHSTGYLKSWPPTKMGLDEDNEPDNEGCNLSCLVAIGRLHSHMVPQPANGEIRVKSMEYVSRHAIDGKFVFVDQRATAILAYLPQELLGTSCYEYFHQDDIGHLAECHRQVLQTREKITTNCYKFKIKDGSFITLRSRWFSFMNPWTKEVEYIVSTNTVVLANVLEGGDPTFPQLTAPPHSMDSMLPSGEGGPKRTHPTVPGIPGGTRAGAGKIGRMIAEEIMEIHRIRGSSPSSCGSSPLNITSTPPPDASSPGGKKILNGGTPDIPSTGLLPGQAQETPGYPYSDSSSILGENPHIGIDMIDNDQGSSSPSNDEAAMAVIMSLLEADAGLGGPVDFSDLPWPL

B1: 14-3-3β (protein, UniProt Q9CQV8 1-246)
chain: MTMDKSELVQKAKLAEQAERYDDMAAAMKAVTEQGHELSNEERNLLSVAYKNVVGARRSSWRVISSIEQKTERNEKKQQMGKEYREKIEAELQDICNDVLELLDKYLILNATQAESKVFYLKMKGDYFRYLSEVASGENKQTTVSNSQQAYQEAFEISKKEMQPTHPIRLGLALNFSVFYYEILNSPEKACSLAKTAFDEAIAELDTLNEESYKDSTLIMQLLRDNLTLWTSENQGDEGDAGEGEN
- binding: binds

From article PMC5013695
